Laboratory results reported in article PMC4007430.
No constants are given. Whether binding was seen depends on the method and setting. Binding can be weak; no strength is given.

Chains of the proteins cited; added tags and fusions are not shown. Lines headed by an entry give the natural chain unless they say otherwise; changes in a name come on top.
UniProt O00590: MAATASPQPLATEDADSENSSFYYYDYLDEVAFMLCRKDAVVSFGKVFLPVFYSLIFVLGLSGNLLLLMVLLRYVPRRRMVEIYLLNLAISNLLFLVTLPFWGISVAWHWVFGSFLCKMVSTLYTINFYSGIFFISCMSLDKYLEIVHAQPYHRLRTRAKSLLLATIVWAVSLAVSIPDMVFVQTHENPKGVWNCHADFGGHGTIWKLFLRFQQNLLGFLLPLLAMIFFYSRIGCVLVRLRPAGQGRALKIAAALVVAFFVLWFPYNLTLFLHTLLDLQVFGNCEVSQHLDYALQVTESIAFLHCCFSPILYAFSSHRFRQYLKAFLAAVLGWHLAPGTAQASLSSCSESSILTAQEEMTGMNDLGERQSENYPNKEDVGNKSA

How the values were obtained:
Assay in all cases: flow cytometry on cells; Alexa Fluor 647-labelled chemokine added to HEK 293 cells expressing HA-ACKR2 or mutants, incubated at 37 °C in 5% CO2 (binding and uptake), washed in ice-cold FACS buffer, mean fluorescence intensity; in some panels cells were pretreated with sodium chlorate (30-150 mM), siRNA to TPST1 and/or TPST2, or 2 μM staphopain A; only the binder purified
[1] = molecular target: HA-ACKR2 mutant 7 (only second tyrosine present, FYFDF) (human) (UniProt O00590)
[2] = molecular target: HA-ACKR2 mutant 5 (second tyrosine mutated, YFYDY) (human) (UniProt O00590)
[3] = molecular target: HA-ACKR2 mutant 8 (only third tyrosine present, FFYDF) (human) (UniProt O00590)
[4] = molecular target: HA-ACKR2 mutant 9 (only fourth tyrosine present, FFFDY) (human) (UniProt O00590)
[5] = molecular target: HA-ACKR2 mutant 6 (only first tyrosine present, YFFDF) (human) (UniProt O00590)

Measured: binding

B1: CCL22 labeled with Alexa Fluor 647 (ligand, UniProt O00626 25-93)
chain: GPYGANMEDSVCCRDYVRYRLPLRVVKHFYWTSDSCPRPGVVLLTFRDKEICADPRVPWVKMILNKLSQ
modifications: Alexa Fluor 647 label (site not stated)
binds: all assays above
